Experimental data taken from the supplement of paper PMC6411743.
± gives the standard deviation of the averaged measurements. The entries are a selection whose mix differs from that of the whole data set.

The chains behind the UniProt entries cited, without tags or fusion partners. Where a name states a change or a piece, a line headed by the entry shows the natural chain unless it says otherwise.
UniProt Q6NW29: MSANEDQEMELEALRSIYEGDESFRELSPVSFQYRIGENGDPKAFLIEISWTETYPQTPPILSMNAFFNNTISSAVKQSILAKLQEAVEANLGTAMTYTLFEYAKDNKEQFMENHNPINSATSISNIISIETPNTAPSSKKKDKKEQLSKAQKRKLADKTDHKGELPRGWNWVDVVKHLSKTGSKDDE
UniProt Q12873: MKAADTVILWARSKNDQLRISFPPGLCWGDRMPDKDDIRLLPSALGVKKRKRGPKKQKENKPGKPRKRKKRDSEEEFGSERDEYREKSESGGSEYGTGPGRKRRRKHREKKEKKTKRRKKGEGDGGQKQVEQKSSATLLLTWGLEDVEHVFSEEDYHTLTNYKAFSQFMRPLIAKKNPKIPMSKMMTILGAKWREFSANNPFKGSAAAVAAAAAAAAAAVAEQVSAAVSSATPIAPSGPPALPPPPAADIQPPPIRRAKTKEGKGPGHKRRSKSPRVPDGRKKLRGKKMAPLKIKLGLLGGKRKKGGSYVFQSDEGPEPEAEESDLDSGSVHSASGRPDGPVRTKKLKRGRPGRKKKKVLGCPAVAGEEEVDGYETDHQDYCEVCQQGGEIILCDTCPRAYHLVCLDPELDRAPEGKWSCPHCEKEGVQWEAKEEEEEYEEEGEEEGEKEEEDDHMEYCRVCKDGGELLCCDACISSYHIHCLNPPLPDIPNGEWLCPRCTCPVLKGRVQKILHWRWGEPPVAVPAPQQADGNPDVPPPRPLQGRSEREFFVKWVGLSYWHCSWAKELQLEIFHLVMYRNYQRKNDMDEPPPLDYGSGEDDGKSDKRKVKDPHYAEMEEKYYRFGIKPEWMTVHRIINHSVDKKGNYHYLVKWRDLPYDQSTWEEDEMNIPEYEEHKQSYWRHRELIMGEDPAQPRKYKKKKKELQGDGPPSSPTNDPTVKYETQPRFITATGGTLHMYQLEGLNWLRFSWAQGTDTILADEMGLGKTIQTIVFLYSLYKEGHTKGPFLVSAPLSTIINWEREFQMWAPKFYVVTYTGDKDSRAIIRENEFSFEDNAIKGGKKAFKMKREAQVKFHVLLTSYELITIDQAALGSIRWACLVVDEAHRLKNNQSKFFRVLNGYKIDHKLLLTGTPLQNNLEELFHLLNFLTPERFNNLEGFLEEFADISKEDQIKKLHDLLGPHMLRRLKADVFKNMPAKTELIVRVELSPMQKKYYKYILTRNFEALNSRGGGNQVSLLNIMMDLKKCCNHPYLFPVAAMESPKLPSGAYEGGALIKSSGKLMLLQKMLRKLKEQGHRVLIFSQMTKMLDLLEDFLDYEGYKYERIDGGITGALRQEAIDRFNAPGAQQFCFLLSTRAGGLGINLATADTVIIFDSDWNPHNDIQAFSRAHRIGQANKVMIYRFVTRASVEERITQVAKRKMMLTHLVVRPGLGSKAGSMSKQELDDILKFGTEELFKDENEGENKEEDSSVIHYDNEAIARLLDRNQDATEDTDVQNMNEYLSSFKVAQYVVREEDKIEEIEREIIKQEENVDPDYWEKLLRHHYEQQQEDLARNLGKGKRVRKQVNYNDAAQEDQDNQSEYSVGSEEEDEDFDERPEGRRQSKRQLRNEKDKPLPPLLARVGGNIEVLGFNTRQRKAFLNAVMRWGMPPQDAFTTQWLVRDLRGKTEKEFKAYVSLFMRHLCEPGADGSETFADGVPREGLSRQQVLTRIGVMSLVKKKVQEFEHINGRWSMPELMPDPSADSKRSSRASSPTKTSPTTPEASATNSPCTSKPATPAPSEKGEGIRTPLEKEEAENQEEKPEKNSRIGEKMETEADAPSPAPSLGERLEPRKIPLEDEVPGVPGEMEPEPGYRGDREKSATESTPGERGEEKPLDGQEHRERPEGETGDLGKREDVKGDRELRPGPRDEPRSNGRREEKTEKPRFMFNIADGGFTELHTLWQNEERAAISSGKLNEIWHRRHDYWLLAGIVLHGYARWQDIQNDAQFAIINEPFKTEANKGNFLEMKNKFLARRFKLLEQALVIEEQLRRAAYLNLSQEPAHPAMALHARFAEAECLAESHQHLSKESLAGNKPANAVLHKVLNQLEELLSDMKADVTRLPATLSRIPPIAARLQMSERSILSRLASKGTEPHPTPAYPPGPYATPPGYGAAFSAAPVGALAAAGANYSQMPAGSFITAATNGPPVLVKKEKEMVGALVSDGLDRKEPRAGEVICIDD
UniProt Q9NZJ7, whole entry: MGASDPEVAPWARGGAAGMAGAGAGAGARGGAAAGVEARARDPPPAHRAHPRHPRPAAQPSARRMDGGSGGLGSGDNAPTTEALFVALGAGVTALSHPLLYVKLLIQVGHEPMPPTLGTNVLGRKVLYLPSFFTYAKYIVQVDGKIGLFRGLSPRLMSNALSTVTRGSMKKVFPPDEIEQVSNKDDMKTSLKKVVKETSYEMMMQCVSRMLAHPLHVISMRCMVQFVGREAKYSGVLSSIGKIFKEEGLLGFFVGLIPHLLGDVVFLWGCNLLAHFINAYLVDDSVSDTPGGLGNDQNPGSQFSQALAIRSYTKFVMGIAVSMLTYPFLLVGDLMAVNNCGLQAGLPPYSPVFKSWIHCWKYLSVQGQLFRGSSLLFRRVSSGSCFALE
UniProt Q9GZN7, whole entry: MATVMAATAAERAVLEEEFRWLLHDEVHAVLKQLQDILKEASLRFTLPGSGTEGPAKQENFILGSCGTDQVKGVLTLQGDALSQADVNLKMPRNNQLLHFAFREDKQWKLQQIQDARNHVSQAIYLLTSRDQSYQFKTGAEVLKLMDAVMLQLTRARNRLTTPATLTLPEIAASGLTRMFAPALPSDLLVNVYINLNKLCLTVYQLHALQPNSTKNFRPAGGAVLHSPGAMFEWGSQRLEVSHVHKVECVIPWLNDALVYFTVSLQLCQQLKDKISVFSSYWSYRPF
UniProt O95476: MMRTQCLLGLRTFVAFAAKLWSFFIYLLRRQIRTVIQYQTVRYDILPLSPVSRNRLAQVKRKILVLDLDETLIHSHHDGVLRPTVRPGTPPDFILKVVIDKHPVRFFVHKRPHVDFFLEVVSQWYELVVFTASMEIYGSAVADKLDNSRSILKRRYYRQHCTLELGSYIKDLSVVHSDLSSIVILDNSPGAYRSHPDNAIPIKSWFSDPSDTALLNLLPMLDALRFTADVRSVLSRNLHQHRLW
UniProt Q9Y2K2: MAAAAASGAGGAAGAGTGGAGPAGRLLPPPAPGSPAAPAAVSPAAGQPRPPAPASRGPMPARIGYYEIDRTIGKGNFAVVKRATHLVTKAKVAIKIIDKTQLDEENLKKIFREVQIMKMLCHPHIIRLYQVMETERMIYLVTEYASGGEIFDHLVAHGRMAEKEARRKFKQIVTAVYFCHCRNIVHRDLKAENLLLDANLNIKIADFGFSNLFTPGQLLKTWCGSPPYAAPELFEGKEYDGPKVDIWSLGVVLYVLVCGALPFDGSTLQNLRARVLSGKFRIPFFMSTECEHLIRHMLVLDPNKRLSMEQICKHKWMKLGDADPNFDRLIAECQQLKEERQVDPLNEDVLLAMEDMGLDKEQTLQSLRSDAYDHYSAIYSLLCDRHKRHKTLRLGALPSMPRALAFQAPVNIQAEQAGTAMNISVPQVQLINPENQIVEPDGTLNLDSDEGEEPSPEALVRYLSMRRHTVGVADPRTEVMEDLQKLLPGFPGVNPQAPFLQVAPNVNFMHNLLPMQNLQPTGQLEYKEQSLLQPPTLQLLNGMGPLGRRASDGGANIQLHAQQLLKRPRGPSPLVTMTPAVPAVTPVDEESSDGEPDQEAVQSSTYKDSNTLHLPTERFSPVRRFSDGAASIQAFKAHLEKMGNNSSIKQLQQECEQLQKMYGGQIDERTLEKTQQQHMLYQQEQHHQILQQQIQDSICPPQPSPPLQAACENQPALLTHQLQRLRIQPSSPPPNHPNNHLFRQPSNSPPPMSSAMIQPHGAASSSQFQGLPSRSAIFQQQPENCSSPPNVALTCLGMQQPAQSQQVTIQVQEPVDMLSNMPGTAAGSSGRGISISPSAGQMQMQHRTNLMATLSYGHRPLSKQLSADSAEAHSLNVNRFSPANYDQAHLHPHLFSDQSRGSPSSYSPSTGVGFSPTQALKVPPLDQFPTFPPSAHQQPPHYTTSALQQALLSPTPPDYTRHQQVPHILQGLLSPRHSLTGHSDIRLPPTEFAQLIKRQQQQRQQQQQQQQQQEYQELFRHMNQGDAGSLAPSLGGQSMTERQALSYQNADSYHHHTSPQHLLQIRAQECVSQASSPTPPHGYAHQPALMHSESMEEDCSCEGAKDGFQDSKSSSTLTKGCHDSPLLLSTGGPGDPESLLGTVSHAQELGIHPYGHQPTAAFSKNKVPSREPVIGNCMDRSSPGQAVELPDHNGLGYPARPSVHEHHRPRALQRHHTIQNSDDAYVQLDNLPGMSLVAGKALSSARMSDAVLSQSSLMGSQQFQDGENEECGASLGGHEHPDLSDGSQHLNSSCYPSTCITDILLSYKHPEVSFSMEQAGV
UniProt Q08117: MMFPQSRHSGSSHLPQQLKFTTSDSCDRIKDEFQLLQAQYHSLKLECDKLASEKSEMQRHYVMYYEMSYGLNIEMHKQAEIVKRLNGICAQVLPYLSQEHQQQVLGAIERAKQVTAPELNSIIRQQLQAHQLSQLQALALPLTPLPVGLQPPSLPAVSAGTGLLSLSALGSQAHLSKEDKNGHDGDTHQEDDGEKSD
UniProt Q14119: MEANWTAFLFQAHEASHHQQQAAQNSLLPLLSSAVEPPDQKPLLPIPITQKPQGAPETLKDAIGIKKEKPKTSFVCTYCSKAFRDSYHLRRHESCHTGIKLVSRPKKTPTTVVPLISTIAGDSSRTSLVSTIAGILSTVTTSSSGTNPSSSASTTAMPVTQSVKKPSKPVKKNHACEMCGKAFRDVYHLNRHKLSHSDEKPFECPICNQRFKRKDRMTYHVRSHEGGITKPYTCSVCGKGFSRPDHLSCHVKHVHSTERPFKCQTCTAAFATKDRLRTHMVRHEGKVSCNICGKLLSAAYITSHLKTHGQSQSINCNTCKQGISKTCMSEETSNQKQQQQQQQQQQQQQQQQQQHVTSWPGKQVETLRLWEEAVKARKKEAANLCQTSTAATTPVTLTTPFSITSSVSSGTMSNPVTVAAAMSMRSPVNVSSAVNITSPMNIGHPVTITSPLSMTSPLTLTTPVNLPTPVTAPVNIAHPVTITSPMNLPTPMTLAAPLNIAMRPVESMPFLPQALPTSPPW
UniProt Q8N1S5: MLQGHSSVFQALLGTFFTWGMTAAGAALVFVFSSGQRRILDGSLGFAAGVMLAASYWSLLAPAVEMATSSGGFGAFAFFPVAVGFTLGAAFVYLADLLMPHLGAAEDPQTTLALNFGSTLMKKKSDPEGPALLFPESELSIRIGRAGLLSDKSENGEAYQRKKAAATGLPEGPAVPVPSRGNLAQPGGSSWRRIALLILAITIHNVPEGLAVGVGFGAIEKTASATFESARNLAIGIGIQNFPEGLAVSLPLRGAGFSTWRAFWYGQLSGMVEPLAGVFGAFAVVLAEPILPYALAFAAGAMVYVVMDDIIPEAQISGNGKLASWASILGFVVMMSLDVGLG
UniProt O95644: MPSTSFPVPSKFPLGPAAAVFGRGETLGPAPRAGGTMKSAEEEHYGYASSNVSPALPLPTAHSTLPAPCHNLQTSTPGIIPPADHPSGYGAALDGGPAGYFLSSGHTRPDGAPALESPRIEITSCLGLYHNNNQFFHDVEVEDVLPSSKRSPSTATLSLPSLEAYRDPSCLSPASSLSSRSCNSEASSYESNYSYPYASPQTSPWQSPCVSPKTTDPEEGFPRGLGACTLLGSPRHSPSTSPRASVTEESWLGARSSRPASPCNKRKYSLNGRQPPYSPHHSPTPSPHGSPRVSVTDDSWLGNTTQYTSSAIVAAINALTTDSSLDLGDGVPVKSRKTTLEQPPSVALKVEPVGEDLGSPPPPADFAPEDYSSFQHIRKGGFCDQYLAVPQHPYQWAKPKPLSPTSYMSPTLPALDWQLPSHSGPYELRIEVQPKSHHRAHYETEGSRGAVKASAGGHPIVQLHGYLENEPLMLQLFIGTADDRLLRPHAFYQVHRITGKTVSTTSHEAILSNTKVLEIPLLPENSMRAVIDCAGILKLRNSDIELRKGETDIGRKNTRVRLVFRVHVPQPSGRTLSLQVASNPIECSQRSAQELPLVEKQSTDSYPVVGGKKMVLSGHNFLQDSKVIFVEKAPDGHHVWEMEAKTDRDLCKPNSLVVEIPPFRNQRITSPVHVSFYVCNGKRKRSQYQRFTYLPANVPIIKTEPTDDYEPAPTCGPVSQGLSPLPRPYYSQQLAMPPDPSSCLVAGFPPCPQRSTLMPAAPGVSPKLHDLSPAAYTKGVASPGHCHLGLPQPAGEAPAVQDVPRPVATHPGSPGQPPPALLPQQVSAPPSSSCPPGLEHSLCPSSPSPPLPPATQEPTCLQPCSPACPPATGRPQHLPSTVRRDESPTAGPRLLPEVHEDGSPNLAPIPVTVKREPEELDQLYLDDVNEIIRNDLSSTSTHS

Compound: Nc1ncnc2c1ncn2[C@@H]1O[C@H](COP(=O)(O)OP(=O)(O)OP(=O)(O)O)[C@@H](O)[C@H]1O [adenosine triphosphate]
Experiment: NP40-soluble protein abundance relative to vehicle (solubility fold change) (ratio); higher = more soluble protein in presence of ATP
Outline: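 Each value is a fold change relative to the detergent-processed vehicle, calculated per replicate from vsn-normalised intensities. Jurkat crude lysate received eight concentrations (0.1 to 10 mM) for 10 min at room temperature and 3 min at 37 °C, then was solubilised in 0.8% NP40 with benzonase (60 min, 4 °C). The ultracentrifuged supernatant was TMT-labelled and run by LC-MS/MS in three independent experiments.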

| Target | NP40-soluble protein abundance (concentration: 1mM) | NP40-soluble protein abundance (concentration: 2mM) | NP40-soluble protein abundance (concentration: 4mM) | NP40-soluble protein abundance (concentration: 6mM) | NP40-soluble protein abundance (concentration: 8mM) | NP40-soluble protein abundance (concentration: 10mM) |
| --- | --- | --- | --- | --- | --- | --- |
| K4DI92 and related entries (UniProt Q6NW29) | 0.904 ± 0.05 | 0.9555 ± 0.0089 | 0.916 ± 0.014 | 0.9147 ± 0.0066 | 0.894 ± 0.035 | 0.89 ± 0.046 |
| I3L1K6 and related entries (UniProt P12829) | 0.984 ± 0.15 | 0.977 ± 0.13 | 0.999 ± 0.17 | 1.02 ± 0.21 | 0.969 ± 0.13 | 0.899 ± 0.092 |
| J9JIE6 and related entries (UniProt Q9UM00) | 0.912 ± 0.054 | 0.96 ± 0.049 | 0.97 ± 0.044 | 1.06 ± 0.024 | 1.04 ± 0.095 | 1.05 ± 0.028 |
| H7C3H7 and related entries (UniProt Q12873) | 1.23 ± 0.028 | 1.23 ± 0.023 | 1.29 ± 0.02 | 1.34 ± 0.041 | 1.39 ± 0.048 | 1.4 ± 0.065 |
| H0Y8C3 and related entries (UniProt Q9NZJ7) | 0.954 ± 0.058 | 0.911 ± 0.075 | 0.918 ± 0.031 | 0.901 ± 0.047 | 0.899 ± 0.081 | 0.954 ± 0.049 |
| H3BLZ8 (UniProt Q92841) | 1.09 ± 0.1 | 0.948 ± 0.2 | 1.23 ± 0.17 | 1.04 ± 0.23 | 1.24 ± 0.11 | 1.06 ± 0.2 |
| K7ERP1 and related entries (UniProt Q9GZN7) | 1.13 ± 0.061 | 1.05 ± 0.064 | 1.03 ± 0.054 | 1.01 ± 0.062 | 1.05 ± 0.056 | 1.05 ± 0.035 |
| I3L4X7 and related entries (UniProt Q13227) | 1.01 ± 0.081 | 0.983 ± 0.064 | 0.984 ± 0.084 | 1.03 ± 0.059 | 1 ± 0.046 | 1.02 ± 0.049 |
| I3L3K5 and related entries (UniProt O95476) | 0.983 ± 0.12 | 1.01 ± 0.074 | 1.02 ± 0.1 | 1.01 ± 0.098 | 1.01 ± 0.14 | 0.957 ± 0.069 |
| J3KPC8 and related entries (UniProt Q9Y2K2) | 1 ± 0.085 | 1.05 ± 0.1 | 1.08 ± 0.078 | 1.01 ± 0.076 | 1.03 ± 0.12 | 1.02 ± 0.11 |
| K7ELE3 and related entries (UniProt Q08117) | 0.928 ± 0.071 | 0.916 ± 0.11 | 1.01 ± 0.064 | 0.972 ± 0.07 | 0.883 ± 0.042 | 0.89 ± 0.089 |
| J3QSH4 and related entries (UniProt Q14119) | 0.992 ± 0.053 | 0.98 ± 0.034 | 0.918 ± 0.038 | 0.96 ± 0.083 | 0.894 ± 0.049 | 0.896 ± 0.024 |
| J3QLB2 and related entries (UniProt Q8N1S5) | 0.988 ± 0.06 | 1.04 ± 0.07 | 1.08 ± 0.038 | 1.07 ± 0.12 | 1 ± 0.035 | 1.09 ± 0.075 |
| K7ER53 and related entries (UniProt O95644) | 1.1 ± 0.1 | 1.06 ± 0.079 | 1.03 ± 0.089 | 1.05 ± 0.17 | 1.02 ± 0.1 | 1.02 ± 0.1 |
| K7EIY4 and related entries (UniProt O60499) | 0.931 ± 0.04 | 0.9751 ± 0.0073 | 0.9979 ± 0.008 | 1.06 ± 0.089 | 0.959 ± 0.024 | 0.916 ± 0.056 |

2 successive entries already listed:

| Target | NP40-soluble protein abundance (concentration: 1mM) | NP40-soluble protein abundance (concentration: 2mM) | NP40-soluble protein abundance (concentration: 4mM) | NP40-soluble protein abundance (concentration: 6mM) | NP40-soluble protein abundance (concentration: 8mM) | NP40-soluble protein abundance (concentration: 10mM) |
| --- | --- | --- | --- | --- | --- | --- |
| K7ERP1 and related entries (UniProt Q9GZN7) | 1.13 ± 0.061 | 1.05 ± 0.064 | 1.03 ± 0.054 | 1.01 ± 0.062 | 1.05 ± 0.056 | 1.05 ± 0.035 |
| I3L4X7 and related entries (UniProt Q13227) | 1.01 ± 0.081 | 0.983 ± 0.064 | 0.984 ± 0.084 | 1.03 ± 0.059 | 1 ± 0.046 | 1.02 ± 0.049 |
